Results published in article PMC2810336.
For at least one entry, the source does not settle the construct or the ends of the probe. Weaker means in comparison with the reference protein, sequence or condition of that experiment. For some assays here: The direction of at least one scale is not stated here.

Legend:
Test in all cases: EMSA
[1] = molecular target: phiC31 integrase E153A (Streptomyces phage phiC31) (UniProt Q38194); conditions: recombinant protein, protein details: C-terminal His, label: biotin, double-strand end-labeled
[2] = molecular target: phiC31 integrase I141A (Streptomyces phage phiC31) (UniProt Q38194); conditions: recombinant protein, protein details: C-terminal His, label: biotin, double-strand end-labeled
[3] = molecular target: phiC31 integrase I432A (Streptomyces phage phiC31) (UniProt Q38194); conditions: recombinant protein, protein details: C-terminal His, label: biotin, double-strand end-labeled
[4] = molecular target: phiC31 integrase L143A (Streptomyces phage phiC31) (UniProt Q38194); conditions: recombinant protein, protein details: C-terminal His, label: biotin, double-strand end-labeled
[5] = molecular target: phiC31 integrase R18A (Streptomyces phage phiC31) (UniProt Q38194); conditions: recombinant protein, protein details: C-terminal His, label: biotin, double-strand end-labeled
[6] = molecular target: phiC31 integrase C376A/G377A (Streptomyces phage phiC31) (UniProt Q38194); conditions: complexes I and II, group 2-7 fold decrease; recombinant protein; protein details: C-terminal His; label: biotin, double-strand end-labeled
[7] = molecular target: phiC31 integrase V566A (Streptomyces phage phiC31) (UniProt Q38194); conditions: complex I, group 2-7 fold decrease; recombinant protein; protein details: C-terminal His; label: biotin, double-strand end-labeled
[8] = molecular target: phiC31 integrase V571A (Streptomyces phage phiC31) (UniProt Q38194); conditions: complex I, group 2-7 fold decrease; recombinant protein; protein details: C-terminal His; label: biotin, double-strand end-labeled
[9] = molecular target: phiC31 integrase Y393A (Streptomyces phage phiC31) (UniProt Q38194); conditions: complex I, group 2-7 fold decrease; recombinant protein; protein details: C-terminal His; label: biotin, double-strand end-labeled
[10] = 400 nM protein, complexes I and II
[11] = 400 nM protein, complexes I, II, III
[12] = complex II, group 2-7 fold decrease
[13] = complexes I, II, III, group 2-7 fold decrease

CGGGTGCCAGGGCGTGCCCTTGGGCTCCCCGGGCGCGTACT (double strand) [attB 41 bp]
binding signal [1, 10]: 46 % of WT | binding signal [2, 11]: 54 % of WT | binding signal [3, 11]: 61 % of WT | binding signal [4, 10]: 38 % of WT | binding signal [5, 10]: 16 % of WT

GTAGTGCCCCAACTGGGGTAACCTTTGAGTTCTCTCAGTTGGGGGCGTAG (double strand) [attP 50 bp]
binding result [6]: binds more weakly | binding result [1, 12]: binds more weakly | binding result ([2]; complex III, group 2-7 fold decrease): binds more weakly | binding result [3, 12]: binds more weakly | binding result [4, 13]: binds more weakly | binding result [5, 13]: binds more weakly | binding result [7]: binds more weakly | binding result [8]: binds more weakly | binding result [9]: binds more weakly
